Laboratory results: publication PMC9348664
No constants are given. Whether binding was seen depends on the method and setting. Binding seen in cells or lysates may run through a third protein. Here binding means that the protein was enriched with, or labelled near, the bait; the list need not be complete.

By UniProt entry, the sequences of proteins in these tests, tags left out.
UniProt Q16877: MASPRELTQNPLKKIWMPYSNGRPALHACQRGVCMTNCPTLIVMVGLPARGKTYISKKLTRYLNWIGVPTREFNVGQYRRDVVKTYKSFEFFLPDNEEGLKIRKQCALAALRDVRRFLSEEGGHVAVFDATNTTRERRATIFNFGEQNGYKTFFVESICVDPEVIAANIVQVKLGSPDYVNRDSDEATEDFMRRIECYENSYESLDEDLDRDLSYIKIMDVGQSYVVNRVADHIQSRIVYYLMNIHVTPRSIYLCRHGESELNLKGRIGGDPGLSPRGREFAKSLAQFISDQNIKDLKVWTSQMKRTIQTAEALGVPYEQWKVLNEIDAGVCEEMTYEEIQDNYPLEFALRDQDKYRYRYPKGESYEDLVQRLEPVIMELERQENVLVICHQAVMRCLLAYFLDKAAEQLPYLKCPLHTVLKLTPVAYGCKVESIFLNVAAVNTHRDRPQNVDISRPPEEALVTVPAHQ
UniProt O60725: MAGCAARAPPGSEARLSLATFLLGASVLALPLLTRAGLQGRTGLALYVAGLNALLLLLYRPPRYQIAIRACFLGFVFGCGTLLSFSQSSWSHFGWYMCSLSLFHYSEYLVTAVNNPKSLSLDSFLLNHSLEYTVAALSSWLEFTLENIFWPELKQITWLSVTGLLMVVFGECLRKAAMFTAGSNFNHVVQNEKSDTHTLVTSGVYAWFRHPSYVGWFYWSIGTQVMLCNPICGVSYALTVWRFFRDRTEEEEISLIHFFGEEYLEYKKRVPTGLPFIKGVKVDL

Biological target: FLAG-tagged human PFKFB4 (human) (UniProt Q16877)
Experiment: affinity purification with mass spectrometry; FLAG-M2 magnetic beads on lysate of transfected MeWo cells (100 mM NaCl, 0.5% NP-40, 20 mM Tris-HCl pH 7.5, 5 mM MgCl2), overnight at 4°C; nanoESI-Orbitrap, Mascot; negative control V5-tagged PFKFB4

binding: binds
Substance: isoprenylcystein carboxyl methyl transferase (ICMT), endogenous (from UniProt O60725 1-284) (enzyme)
